In PubChem BioAssay AID540276 (National Center for Advancing Translational Sciences (NCATS), 2011):
Where “and” joins values, the source holds several entries; their conditions need not be identical. Equal entries are not always repeated. About 5,400 (1.8%) of roughly 300,000 compounds were called active. The shares of active, inactive and inconclusive entries below differ from those in the screen. The call rests on the fitted dose curve; tested in HEK293 cells. A potency beside an inconclusive call is a rough fit, not a confirmed value.

experiment: qHTS for inhibitors of binding or entry into cells for Marburg Virus; conditions: Marburg virus pseudotyped entry inhibition, cell reporter; activity change, negative = inhibition: at 37.8 µM (top of the series) unless noted
On the % scale 0 is the no-effect control and ±100 the full control effect; potency means the concentration at half of the fitted maximal effect.

Structure (SMILES)	activity change, negative = inhibition	Potency
O=C1NC(c2ccccc2)=C(c2ccc3ccccc3n2)C(c2ccc(F)cc2)N1 (configuration not stated)	inactive: -9%	–
C=C(C)COc1ccc(-c2nc(N)ncc2Oc2ccccc2OCC)c(O)c1	–	inconclusive: 17.8 µM [inhibitor, single point]
Cc1ccccc1NC(=S)NCCC(c1ccccc1)c1ccccc1	–	inconclusive: 14.1 µM [inhibitor, partial curve, poor fit]
CC(C)CC12CN3CCN(CC(C3)C1O)C2 (configuration not stated)	–	inconclusive: 20 µM [activator, single point]
Cc1[nH]c2ccccc2c1Cc1nnc(SCCC#N)o1	–	inconclusive: 35.5 µM [activator, single point]
Cc1nc(C)c(C(=O)N(c2ccccc2F)C(C(=O)NCC2CCCO2)c2ccccc2)s1 (configuration not stated)	inactive: -6.04% [at 46.1 µM]	–
Cc1ccc(C(=O)Nc2cccc(NC(=O)CN3CCCCC3)c2)cc1	inactive: -14.9%	–
S=C(Nc1ccc(Cl)cc1)c1nc2ccccc2[nH]1	–	inconclusive: 20.6 µM [inhibitor, single point]
Cn1cccc1C(=O)NC(=O)CSc1nnc(C2CC2)n1-c1ccccc1	–	inconclusive: 20.6 µM [inhibitor, single point]
CCOC(=O)c1oc2ccccc2c1NC(=O)CN1CCN(C)CC1	–	inconclusive: 1.26 µM [activator, single point]
C=CCC1(O)C=CCC2C3C4C(OC(C)(C)C)C2C1C34 (configuration not stated)	–	inconclusive: 1.19 µM [activator, single point]
CCCCc1cc2c(cn1)C(=O)C(C)(OC(C)=O)C(=O)C2 (configuration not stated)	–	inconclusive: 0.668 µM [activator, partial curve, poor fit]
O=C(O)c1cc2c(s1)-c1ccccc1OC2	–	inconclusive: 12.6 µM [activator, single point]
O=C1N(Cc2cccc(Cl)c2)C[C@@H]2C[C@@H](c3cccn3-c3nccs3)N3CCC[C@@]123	–	active: 11.2 µM
O=C(Cn1nnc(-c2ccccc2)n1)NCc1ccccc1	–	inconclusive: 9.2 µM [activator, partial curve]
Cc1ccc(C2CC(=O)Nc3c2ccc2ccccc32)cc1[N+](=O)[O-] (configuration not stated)	–	inconclusive: 1.46 µM [inhibitor, partial curve, poor fit]
COc1ccc2sc(NC(=O)c3ccco3)nc2c1	–	inconclusive: 5.8 µM [inhibitor, full curve]
Cc1ccc(S(=O)(=O)n2nc(-c3cccnc3)nc2N)cc1	inactive: 8.21%	–
Cc1ccc(C)c(N2CCN(C(=O)c3ccc4c(c3)c(C)c(C)n4C)CC2)c1	–	inconclusive: 5.62 µM [inhibitor, partial curve]
CCOC(=O)N/N=C1/C[C@@H](O)[C@@H](O)[C@@H]2[C@@H]3C(=O)N(Cc4ccccc4)C(=O)[C@H]3CC[C@H]12	inactive: 24.9% [at 14.2 µM]	–
CCCCCC(=O)NC(=S)Nc1ccc(N2CCCCC2)c(Cl)c1	–	inconclusive: 29.1 µM [inhibitor, single point]
CC1CN(c2ccc(C(F)(F)F)cc2[N+](=O)[O-])CCN1S(C)(=O)=O (configuration not stated)	inactive: -19%	–
CNC(=O)c1ccc(-n2nc(C)cc2-c2ccccc2)cc1	inactive: -2.89%	–
COc1ccc(/C=N/NC(=O)CCCCCNC(=O)c2ccccc2)cc1	inactive: 26.1%	–

Structure (SMILES)	activity change, negative = inhibition	Potency
CCOc1ccc2[nH]c(=O)c(CN(Cc3nnnn3Cc3ccccc3)CC3CCCO3)cc2c1 (configuration not stated)	–	inactive
CCOC(=O)N(O)c1ccc(C=Cc2ccccc2)cc1	–	active: 1.26 µM
O=C(c1ccc([N+](=O)[O-])cc1)N1CCSC1c1ccc(Br)cc1 (configuration not stated)	–	inconclusive: 4.47 µM [inhibitor, full curve, poor fit]
O=C(/C=C/Nc1ccc(F)cc1)c1ccco1	–	inconclusive: 14.1 µM [inhibitor, single point]
Cc1ccc(-c2noc(CSc3nnc(-c4ccccc4)n3C)n2)cc1	–	inconclusive: 8.2 µM [inhibitor, partial curve, poor fit]
CCCCC(=O)N/N=C/c1c(O)n(CC)c(=S)n(CC)c1=O	–	inconclusive: 18.4 µM [inhibitor, single point]
O=S(Cc1ccccc1)c1ccccc1 (configuration not stated)	inactive: 24.8%	–
C=CCn1c(SCc2ccc(C(=O)Nc3ccccc3)cc2)nnc1-c1ccccc1	–	inconclusive: 29.1 µM [inhibitor, single point]
CC(C)=NOc1nc(N2CCOCC2)nc(N2CCOCC2)n1	inconclusive: 0.402% [activator]	–
CC(C)C1CCN(C(=O)C2CCC(=O)N(CCc3ccc(Cl)cc3)C2)CC1 (configuration not stated)	inactive: 5.7%	–
Brc1cnc(N2CCCCC2)nc1N1CCOCC1	–	inconclusive: 17.8 µM [inhibitor, partial curve, poor fit]
O=C(NC1CCCCC1)c1cnn2c(C(F)(F)F)cc(-c3ccco3)nc12	–	inconclusive: 23.1 µM [inhibitor, partial curve, poor fit]
CCOC(=O)C1CCCN(C(=O)c2sc3nc(C)nc(N(CC)CC)c3c2C)C1 (configuration not stated)	inactive: -28.6%	–
CC(=O)C(Cc1ccc(Cl)nc1)(Cc1ccc(Cl)nc1)C(C)=O	–	inconclusive: 35.5 µM [inhibitor, single point]
CC(C)CNC(=O)c1ccccc1SCC(=O)NC12CC3CC(CC(C3)C1)C2	inactive: -12.9%	–
Cc1ccc(S(=O)(=O)NCC(NCc2ccc(F)cc2)c2ccccc2)cc1 (configuration not stated)	–	inconclusive: 35.5 µM [inhibitor, single point]
COc1ccc(-c2cn3cccnc3n2)cc1	–	inconclusive: 3.55 µM [activator, full curve, poor fit]
COc1ccc(N2C(=O)c3ccccc3NC23CCCCC3)cc1	–	inconclusive: 29.1 µM [inhibitor, single point]
Cc1[nH]n(-c2ccccc2)c(=O)c1C(=O)Nc1ccccc1	inactive: 10.8% [at 46.1 µM]	–
CC(=O)NC(=C(Cl)Cl)S(=O)(=O)c1ccccc1	–	active: 10 µM
O=C(O)c1cc(-c2ccccc2)n(-c2ccccc2)n1	–	inconclusive: 0.517 µM [activator, full curve, poor fit]
CCCCOc1ccc(-c2ncc(Cl)cn2)cc1	–	inconclusive: 3.66 µM [activator, partial curve, poor fit]
Cc1ccn2cc(CNS(=O)(=O)c3cccs3)nc2c1	inactive: 11.6% [at 46.1 µM]	–
CN(C)S(=O)(=O)c1cccc(NC(=O)c2ccc3nccnc3c2)c1	–	inconclusive: 7.08 µM [inhibitor, partial curve]

Structure (SMILES)	activity change, negative = inhibition	Potency
O=C(COc1ccc(Cl)cc1)N1CCN(c2ccc([N+](=O)[O-])c(N3CCOCC3)c2)CC1	–	inconclusive: 3.55 µM [inhibitor, partial curve, poor fit]
O=C(Cn1ncc2c3ccccc3n(Cc3ccccc3)c2c1=O)Nc1ccccc1C(F)(F)F	–	inconclusive: 3.16 µM [inhibitor, single point]
Cc1ccc(OCc2nnc(SCc3cc(=O)[nH]c4ccccc34)n2-c2ccccc2)cc1	–	inconclusive: 8.91 µM [inhibitor, partial curve, poor fit]
COc1cc(-c2nc3ccccn3c2/N=C/c2cc(OC)c(OC)c(OC)c2)ccc1O	inactive: 16.4%	–
O=C(CCc1ccccc1)NCC(=O)N/N=C/c1ccc2c(c1)OCO2	–	inconclusive: 13 µM [activator, partial curve, poor fit]
COc1ccc(/C=C(\NC(=O)c2ccccc2)C(=O)NCCC(=O)O)cc1	–	inconclusive: 2.82 µM [inhibitor, partial curve, poor fit]
COc1ccc(CCNc2oc(-c3ccc(OC)c(OC)c3)nc2P(=O)(OC)OC)cc1OC	–	inconclusive: 0.891 µM [inhibitor, partial curve]
CCCOc1ccc(/C=N/NC(=O)C(C)Sc2ccccn2)cc1OCC (configuration not stated)	–	inconclusive: 8.91 µM [inhibitor, partial curve, poor fit]
CC1(c2ccc([N+](=O)[O-])cc2)Nc2ccccc2S1 (configuration not stated)	inactive: 18% [at 46.1 µM]	–
CC(=O)Nc1ccc(S(=O)(=O)NCCSCc2ccco2)cc1	inactive: 0.558%	–
Cc1ccc(-c2nnc(-c3ccccc3)o2)cc1Br	inactive: 14.6%	–
O=C1COc2ccc3ccccc3c21	–	inconclusive: 0.631 µM [inhibitor, single point]
N#C/C(=C\c1c[nH]c2ccccc12)C(=O)c1ccc(O)c(O)c1	–	inactive and inconclusive: 2.23 µM [activator, full curve, poor fit]
COc1ccccc1CN1CC(C(=O)N2CCCCCCC2)CCC1=O (configuration not stated)	inactive: -10.4%	–
CC1CCN(C(=O)c2cc(-c3cccc(Cl)c3)on2)CC1	–	inconclusive: 6.31 µM [activator, partial curve, poor fit]
O=C(Nc1cccc(S(=O)(=O)Nc2ccccc2Cl)c1)c1ccc(N2CCCC2)c([N+](=O)[O-])c1	–	inconclusive: 3.55 µM [inhibitor, full curve, poor fit]
Cc1ccc2nc(C)c(C(=O)N/N=C/c3cccs3)n2c1	inactive: -20.6%	–
FC(F)c1nnc2c(Cl)cc(C(F)(F)F)cn12	–	inconclusive: 20 µM [activator, single point]
CN(C)Cc1c(O)ccc2[nH]cnc12	inactive: 0%	–
CCOc1ccc(CCNC(=O)c2ccc3nc(N4CCOCC4)sc3c2)cc1OCC	inactive: -5.05% [at 46.1 µM]	–
COc1ccc(C(=O)Nc2ccc(N3CCCC3)cc2)cc1Br	inactive: -13.6%	–
COc1cccc(C(C[N+](=O)[O-])c2c(C)[nH]n(-c3ccccc3)c2=O)c1 (configuration not stated)	inactive: -18% [at 46.1 µM]	–
Cc1ccc(S(=O)(=O)N2CCN(S(=O)(=O)N(C)C)CC2)cc1	–	inconclusive: 0.891 µM [inhibitor, single point]
COc1ccc2c(c1)-c1nc(NC(=O)c3ccc(C)cc3)sc1CC2	–	inconclusive: 8.91 µM [inhibitor, partial curve, poor fit]

Reprinted at random: three records from the list
Structure (SMILES)	activity change, negative = inhibition	Potency
COc1cc(-c2nc3ccccn3c2/N=C/c2cc(OC)c(OC)c(OC)c2)ccc1O	inactive: 16.4%	–
Cc1ccc(C(=O)Nc2cccc(NC(=O)CN3CCCCC3)c2)cc1	inactive: -14.9%	–
CC(C)CC12CN3CCN(CC(C3)C1O)C2 (configuration not stated)	–	inconclusive: 20 µM [activator, single point]
